Data published in article PMC4826223.
pKd: −log10 of the molar value. Construct, isoform or probe ends are uncertain for at least one entry. For some assays here: Negatives hold for the conditions tested. For some assays here: At least one result comes from cells or an extract, where the contact may be indirect.

Chains of the proteins cited; added tags and fusions are not shown. Residues count along the entry.
UniProt Q8VIM0, 20-193, stated change not applied: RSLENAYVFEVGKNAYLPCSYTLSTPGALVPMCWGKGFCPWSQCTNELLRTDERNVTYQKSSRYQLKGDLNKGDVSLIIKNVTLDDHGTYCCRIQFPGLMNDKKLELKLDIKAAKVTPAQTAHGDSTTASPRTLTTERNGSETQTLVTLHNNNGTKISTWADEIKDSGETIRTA

Key:
[1] = target: mouse TIM3-Fc chimera (rmTIM-3-Fc) (mouse) (UniProt Q8VIM0); experiment: double-filter nitrocellulose filter binding; conditions: apparent Kd; 2'-fluoro-U and 2'-fluoro-C; Filter-binding buffer not detailed (cited methods); selection buffer 20 mM HEPES, 150 mM NaCl, 2 mM CaCl2, 0.01% BSA, 37 C, pH not stated; commercial protein; protein details: human IgG1 Fc fusion; label: 32P (spiked alpha-32P-ATP, cell binding)
[2] = target: mouse TIM3 extracellular domain on HEK-293-TIM3ext cells (mouse) (UniProt Q8VIM0); experiment: 32P cell binding; conditions: no binding to parental HEK-293; 2'-fluoro-U and 2'-fluoro-C; protein on the cell surface; label: 32P (spiked alpha-32P-ATP, cell binding)
[3] = target: human TIM3-Fc (human) (UniProt Q8TDQ0); experiment: binding assay, method not stated (data not shown); conditions: 2'-fluoro-U and 2'-fluoro-C; recombinant protein; label: 32P (spiked alpha-32P-ATP, cell binding)

Row | Sequence | pKd [1] | binding result [2] | binding result [3]
1 | CUGGUAGUUCUCUGUGCGACUCCUA [TIM3-Apt2] | 7.40 | binds | –
2 | GCCACUAUGGUGUUGGAGCUAGCGG [TIM3-Apt1] | 7.66 | binds | no binding
